# Results from one PubChem assay

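This measures how much the compounds lower the survival of the L363 myeloma line, judged by luminescent ATP signal after two days. Each compound was run as a titration from about 3.1e-05 to 92 µM. The number is a fitted AC50 potency; a lower value means a stronger, more potent effect on viability. Calls follow an activity score built from curve class and fit: 40–100 counts as active, 1–39 as inconclusive, and 0 (class 4) as inactive.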

Values are in nM. Every entry below has the call inconclusive. These entries are mostly ones the record files as inconclusive; other results of the assay are not listed here. A potency from a partial, single-point or poor curve is only a rough figure. Some entries filed as inconclusive have a full curve. The first word of each remark tells which way the curve ran; it can be opposite to the aim of the assay. Activity scores are not listed here.

With CCN(CC)CC#CCOC(=O)C(O)(c1ccccc1)C1CCCCC1 (centres undefined) the assay gave potency 18654 nM (cytotoxic, partial curve, poor fit). CC(C)c1cc(C(C)C)c(CC(=O)NS(=O)(=O)Oc2c(C(C)C)cccc2C(C)C)c(C(C)C)c1 read potency 3.7 nM (cytotoxic, full curve, poor fit). For Nc1nc(=O)n([C@H]2C[C@H](O)[C@@H](CO)O2)cc1F the result was potency 20930 nM (cytotoxic, partial curve, poor fit). With CC(C)(C)NC(=O)[C@H]1CN(Cc2cccnc2)CCN1C[C@@H](O)C[C@@H](Cc1ccccc1)C(=O)N[C@H]1c2ccccc2C[C@H]1O the assay gave potency 2.3 nM (rising, full curve, poor fit). c1ccc2c(CN3CCNCC3)cccc2c1 gave potency 29.6 nM (cytotoxic, full curve, poor fit).

COc1ccc(CCC(=O)c2c(O)cc(O[C@@H]3O[C@H](CO)[C@@H](O)[C@H](O)[C@@H]3O[C@@H]3O[C@@H](C)[C@H](O)[C@@H](O)[C@@H]3O)cc2O)cc1O gave potency 23.5 nM (rising, full curve, poor fit). C[C@](Cc1c[nH]c2ccccc12)(NC(=O)OC1C2CC3CC(C2)CC1C3)C(=O)NC[C@H](NC(=O)CCC(=O)O)c1ccccc1 (some centres undefined) read potency 18654 nM (cytotoxic, partial curve, poor fit). Cc1ccc(CN2CCNCC2)cc1NC(=O)CNc1ccc(F)c(F)c1 gave potency 1 nM (cytotoxic). C[C@H]1C[C@H]2[C@@H]3CCC4=CC(=O)C=C[C@]4(C)[C@@H]3C(=O)C[C@]2(C)[C@@]1(O)C(=O)CO read potency 4.7 nM (rising, full curve, poor fit). COc1ccc([C@@H]2CNC(=O)C2)cc1OC1CCCC1 gave potency 33173 nM (cytotoxic, single point).

C=CC(=O)Nc1cccc(Nc2nc(NC3CCC(N(C)C)CC3)nc3c2ncn3C(C)C)c1 (centres undefined) gave potency 9.3 nM (cytotoxic, full curve). CN(C)CC[C@H](c1ccc(Cl)cc1)c1ccccn1 read potency 263.5 nM (rising, full curve, poor fit). For CCn1cc(C(=O)O)c(=O)c2cc(F)c(N3CCNCC3)cc21 the result was potency 33173 nM (cytotoxic, single point). Result for CN1CCN(CCCN2c3ccccc3Sc3ccc(C(F)(F)F)cc32)CC1 was potency 14817 nM (cytotoxic, partial curve, poor fit). COc1cc(C(=O)NS(=O)(=O)c2ccccc2C)ccc1Cc1cn(C)c2ccc(NC(=O)OC3CCCC3)cc12 gave potency 37.2 nM (rising, partial curve, poor fit).

NC(=O)c1cccc2cn(-c3ccc([C@@H]4CCCNC4)cc3)nc12 gave potency 33173 nM (cytotoxic, single point).

Data taken from PubChem BioAssay AID1918984, deposited by NCATS (2023).